From patent US12042530B2, “Target peptides for immunotherapy and diagnostics” (University of Virginia Patent Foundation, priority 2012, dated 2024) come the findings set out here.

The first series relates to HLA-DR. Briefly: HLA-DR-associated phosphopeptides on melanoma cells and EBV-transformed B cells. More on the design: species or system human; key: Melanoma and transformed B cells are specified by M and B, respectively.; Melanoma and transformed B cells are specified by M and B, respectively.; M/B: Melanoma (M) and/or Transformed B-Cells (B). The conditions noted are these: Class II MHC (DRB1*0404, 0101 or DRB4*0103).
Regarding “516 (RSYSPDHRQK; SITE (1)..(10): One or more of the listed amino acids can be phosphorylated as set forth in the Tables; listed as Homo sapiens) [compound 516]”, the “M/B (cells on which the Class II MHC phosphopeptide is presented)” value is “M/B”.
On the same count and under the same terms, next, “520 (TKSVKALSSLHGDD; SITE (1)..(14): One or more of the listed amino acids can be phosphorylated as set forth in the Tables; listed as Homo sapiens) [compound 520]”: “M/B”; “602 (GTLRRSDSQQAVK; SITE (1)..(13): One or more of the listed amino acids can be phosphorylated as set forth in the Tables; listed as Homo sapiens) [compound 602]”: “M/B”; “518 (FDKHTLGDSDNES; SITE (1)..(13): One or more of the listed amino acids can be phosphorylated as set forth in the Tables; listed as Homo sapiens) [compound 518]”: “M/B”.

For the next series, the system named is cultured melanocytes. Briefly: HLA-A*0201-associated phosphopeptides from cultured melanocytes (mass spectrometry). Also noted: species or system human; key: −: not detected; ++: 5-50 copies/cell; +++: 50-500 copies/cell.
Conditions: not given
Regarding “RTFpSPTYGL (RTFSPTYGL; phosphoserine; SITE (1)..(9): One or more of the listed amino acids can be phosphorylated as set forth in the Tables; listed as Homo sapiens) [SEQ ID NO: 457]”, the Copies/cell result is “++ (5-50 copies/cell)”.
Same read-out and setting: next, “RLLpSPLSSA (RLLSPLSSA; phosphoserine; SITE (1)..(9): One or more of the listed amino acids can be phosphorylated as set forth in the Tables; listed as Homo sapiens) [SEQ ID NO: 410]”: “++ (5-50 copies/cell)”; “SMpTRSPPRV (SMTRSPPRV; phosphothreonine; SITE (1)..(9): One or more of the listed amino acids can be phosphorylated as set forth in the Tables; listed as Homo sapiens) [SEQ ID NO: 421]”: “+++ (50-500 copies/cell)”.
Still for that read-out and setting: in the case of “RTLpSHISEA (RTLSHISEA; phosphoserine; SITE (1)..(9): One or more of the listed amino acids can be phosphorylated as set forth in the Tables; listed as Homo sapiens) [SEQ ID NO: 417]” it was “−”.
Same read-out and setting: next, “RQIpSQDVKL (RQISQDVKL; phosphoserine; SITE (1)..(9): One or more of the listed amino acids can be phosphorylated as set forth in the Tables; listed as Homo sapiens) [SEQ ID NO: 414]”: “++ (5-50 copies/cell)”; “VLLpSPVPEL (VLLSPVPEL; phosphoserine; SITE (1)..(9): One or more of the listed amino acids can be phosphorylated as set forth in the Tables; listed as Homo sapiens) [SEQ ID NO: 424]”: “−”; “RLSpSPLHFV (RLSSPLHFV; phosphoserine; SITE (1)..(9): One or more of the listed amino acids can be phosphorylated as set forth in the Tables; listed as Homo sapiens) [SEQ ID NO: 412]”: “+++ (50-500 copies/cell)”.
For “VMIGpSPKKV (VMIGSPKKV; phosphoserine; SITE (1)..(9): One or more of the listed amino acids can be phosphorylated as set forth in the Tables; listed as Homo sapiens) [SEQ ID NO: 426]”, the Copies/cell entry was “−”.
On the same count and under the same terms, in the case of “KLMpSPKADVKL (KLMSPKADVKL; phosphoserine; SITE (1)..(11): One or more of the listed amino acids can be phosphorylated as set forth in the Tables; listed as Homo sapiens) [SEQ ID NO: 405]” it was “−”; in that of “RQLpSSGVSEI (RQLSSGVSEI; phosphoserine; SITE (1)..(10): One or more of the listed amino acids can be phosphorylated as set forth in the Tables; listed as Homo sapiens) [SEQ ID NO: 415]”, “+++ (50-500 copies/cell)”; in that of RLDpSYVRSL [SEQ ID NO: 408], “++ (5-50 copies/cell)”.
Still for that read-out and setting: next, “GLLGpSPVRA (GLLGSPVRA; phosphoserine; SITE (1)..(9): One or more of the listed amino acids can be phosphorylated as set forth in the Tables; listed as Homo sapiens) [SEQ ID NO: 396]”: “−”.
Same read-out and setting: in the case of “VMFRpTPLASV (VMFRTPLASV; phosphothreonine; SITE (1)..(10): One or more of the listed amino acids can be phosphorylated as set forth in the Tables; listed as Homo sapiens) [SEQ ID NO: 425]” it was “−”.
For the substance “AMAApSPHAV (AMAASPHAV; phosphoserine; SITE (1)..(9): One or more of the listed amino acids can be phosphorylated as set forth in the Tables; listed as Homo sapiens) [SEQ ID NO: 394]”, the Copies/cell entry was “−”.
The same measure, in the same setting: next, “TLApSPSVFKST (TLASPSVFKST; phosphoserine; SITE (1)..(11): One or more of the listed amino acids can be phosphorylated as set forth in the Tables; listed as Homo sapiens) [SEQ ID NO: 422]”: “−”; “LMFpSPVTSL (LMFSPVTSL; phosphoserine; SITE (1)..(9): One or more of the listed amino acids can be phosphorylated as set forth in the Tables; listed as Homo sapiens) [SEQ ID NO: 407]”: “−”.
Same read-out and setting: next, “RQDpSTPGKVFL (RQDSTPGKVFL; phosphoserine; SITE (1)..(11): One or more of the listed amino acids can be phosphorylated as set forth in the Tables; listed as Homo sapiens) [SEQ ID NO: 413]”: “++ (5-50 copies/cell)”.
As to KLIDIVpSSQKV, the Copies/cell result is “−”.
Consider “KLApSPELERL (KLASPELERL; phosphoserine; SITE (1)..(10): One or more of the listed amino acids can be phosphorylated as set forth in the Tables; listed as Homo sapiens) [SEQ ID NO: 399]”, for which the Copies/cell entry was “−”.
Still for that read-out and setting: in the case of “RLQpSTSERL (RLQSTSERL; phosphoserine; SITE (1)..(9): One or more of the listed amino acids can be phosphorylated as set forth in the Tables; listed as Homo sapiens) [SEQ ID NO: 411]” it was “−”.
Turning to “RLFpSKELRC (RLFSKELRC; phosphoserine; SITE (1)..(9): One or more of the listed amino acids can be phosphorylated as set forth in the Tables; listed as Homo sapiens) [SEQ ID NO: 409]”, the Copies/cell entry is “−”.
Still for that read-out and setting: next, “KLLDFGSLpSNLQV (KLLDFGSLSNLQV; phosphoserine; SITE (1)..(13): One or more of the listed amino acids can be phosphorylated as set forth in the Tables; listed as Homo sapiens) [SEQ ID NO: 402]”: “−”; “SLLTpSPPKA (SLLTSPPKA; phosphoserine; SITE (1)..(9): One or more of the listed amino acids can be phosphorylated as set forth in the Tables; listed as Homo sapiens) [SEQ ID NO: 419]”: “−”.
Take KLFPDpTPLAL [SEQ ID NO: 443]: the Copies/cell entry is “−”.
Same read-out and setting: in the case of “IMDRtPEKL (IMDRTPEKL; phosphothreonine; SITE (1)..(9): One or more of the listed amino acids can be phosphorylated as set forth in the Tables; listed as Homo sapiens) [SEQ ID NO: 398]” it was “−”.
Still for that read-out and setting: in the case of “ILKpSPEIQRA (ILKSPEIQRA; phosphoserine; SITE (1)..(10): One or more of the listed amino acids can be phosphorylated as set forth in the Tables; listed as Homo sapiens) [SEQ ID NO: 397]” it was “−”; in that of “KLLpSPSNEKL (KLLSPSNEKL; phosphoserine; SITE (1)..(10): One or more of the listed amino acids can be phosphorylated as set forth in the Tables; listed as Homo sapiens) [SEQ ID NO: 403]”, “−”; in that of “RVApSPTSGV (RVASPTSGV; phosphoserine; SITE (1)..(9): One or more of the listed amino acids can be phosphorylated as set forth in the Tables; listed as Homo sapiens) [SEQ ID NO: 418]”, “+++ (50-500 copies/cell)”.
On the same count and under the same terms, next, “AVVpSPPALHNA (AVVSPPALHNA; phosphoserine; SITE (1)..(11): One or more of the listed amino acids can be phosphorylated as set forth in the Tables; listed as Homo sapiens) [SEQ ID NO: 395]”: “−”.
